ChEMBL document CHEMBL1128468, “Amino acid side chain descriptors for quantitative structure-activity relationship studies of peptide analogues” (J Med Chem, 1995)

The chains behind the UniProt entries cited, without tags or fusion partners.
UniProt P12821, whole entry: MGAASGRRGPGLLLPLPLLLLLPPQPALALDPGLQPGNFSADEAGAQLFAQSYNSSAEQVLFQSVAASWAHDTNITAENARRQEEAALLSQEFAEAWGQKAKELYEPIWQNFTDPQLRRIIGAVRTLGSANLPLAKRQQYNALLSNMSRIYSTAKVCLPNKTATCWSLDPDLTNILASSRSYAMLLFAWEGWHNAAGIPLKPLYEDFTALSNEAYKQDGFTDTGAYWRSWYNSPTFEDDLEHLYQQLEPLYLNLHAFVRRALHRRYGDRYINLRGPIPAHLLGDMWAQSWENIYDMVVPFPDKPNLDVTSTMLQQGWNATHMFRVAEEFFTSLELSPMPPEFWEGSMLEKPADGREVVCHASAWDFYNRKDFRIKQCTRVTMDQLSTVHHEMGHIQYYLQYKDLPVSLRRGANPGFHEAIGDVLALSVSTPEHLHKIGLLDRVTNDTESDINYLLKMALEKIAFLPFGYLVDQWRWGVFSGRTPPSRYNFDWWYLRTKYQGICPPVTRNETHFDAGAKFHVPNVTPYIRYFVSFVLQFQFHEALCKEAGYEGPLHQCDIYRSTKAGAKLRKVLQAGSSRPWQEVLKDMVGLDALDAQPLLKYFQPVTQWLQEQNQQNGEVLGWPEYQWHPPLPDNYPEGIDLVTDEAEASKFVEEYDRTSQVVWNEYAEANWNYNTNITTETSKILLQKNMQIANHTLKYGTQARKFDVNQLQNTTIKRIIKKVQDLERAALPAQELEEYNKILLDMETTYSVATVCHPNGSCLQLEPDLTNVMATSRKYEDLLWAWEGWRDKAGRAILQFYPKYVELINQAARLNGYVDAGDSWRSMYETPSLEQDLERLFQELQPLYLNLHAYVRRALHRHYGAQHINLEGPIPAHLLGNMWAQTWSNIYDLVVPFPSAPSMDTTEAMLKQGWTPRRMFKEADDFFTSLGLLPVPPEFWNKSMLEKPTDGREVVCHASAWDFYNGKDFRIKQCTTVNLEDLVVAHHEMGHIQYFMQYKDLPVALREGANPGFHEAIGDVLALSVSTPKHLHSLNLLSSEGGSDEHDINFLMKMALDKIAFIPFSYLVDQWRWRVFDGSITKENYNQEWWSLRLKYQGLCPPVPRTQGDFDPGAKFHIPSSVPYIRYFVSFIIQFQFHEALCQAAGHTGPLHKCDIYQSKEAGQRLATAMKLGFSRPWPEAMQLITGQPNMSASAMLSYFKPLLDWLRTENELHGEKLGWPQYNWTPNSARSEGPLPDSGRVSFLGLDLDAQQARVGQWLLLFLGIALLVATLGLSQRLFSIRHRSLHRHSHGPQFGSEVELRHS

Biological target: Angiotensin-converting enzyme (Homo sapiens, UniProt P12821)
Experiment: Biological activity was measured against Angiotensin I converting enzyme
Conditions: read-out: Log 1/IC50 (converted)

N[C@@H](Cc1ccc(O)cc1)C(=O)NCC(=O)O
IC50: 2000 µM
